Data taken from patent publication US20250242340A1, “SABRE CATALYSTS CONTAINING FLUORINATED CARBON CHAINS FOR DELIVERY OF METAL-FREE MRI CONTRAST AGENTS” (The United States of America, as represented by the …, priority 2022, published 2025).

Conditions: 30 mM pyruvate, 2.6 mM catalyst, 40 mM DMSO, p-H2 70 scc/m, 100 PSI

In the case of CC(=O)C(=O)O [[1-^13C]pyruvate, Sodium [1-^13C]-pyruvate], the optimum mixing field (0 °C) is reported as 0.4 μT and the “optimum temperature of polarization transfer” value is reported as −7.24 °C.
